The values that follow come from article PMC7190567.

No constants are given. Whether binding was seen depends on the method and setting. In cells and extracts the contact can be indirect. Binding can be weak; no strength is given.

This test deals with T1, Caveolin-1 (wild type) (dog) (UniProt P33724).
T1 sequence: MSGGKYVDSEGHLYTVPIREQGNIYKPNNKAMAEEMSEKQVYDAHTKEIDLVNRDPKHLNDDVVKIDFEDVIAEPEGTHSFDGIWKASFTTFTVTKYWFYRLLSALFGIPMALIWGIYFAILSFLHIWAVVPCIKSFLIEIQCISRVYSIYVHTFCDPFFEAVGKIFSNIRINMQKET
The test is described as follows: co-IP; polyclonal anti-CAV1 (2.5 ug) on protein A Dynabeads; 2 mg extract of B16F10 cells expressing E-cadherin (pBATEM2); PBS-Tween 0.1%, 2 h, room temperature; western blot. (In general: In western blotting, separated proteins are transferred to a membrane and probed.)

Consider E-cadherin (murine) (mouse), for which the binding entry is “binds”.
